Among the data in doi:10.1101/2020.06.18.159293 are binding values, retold here.

By UniProt entry, the sequences of proteins in these tests, tags left out.
UniProt Q5T5Y3: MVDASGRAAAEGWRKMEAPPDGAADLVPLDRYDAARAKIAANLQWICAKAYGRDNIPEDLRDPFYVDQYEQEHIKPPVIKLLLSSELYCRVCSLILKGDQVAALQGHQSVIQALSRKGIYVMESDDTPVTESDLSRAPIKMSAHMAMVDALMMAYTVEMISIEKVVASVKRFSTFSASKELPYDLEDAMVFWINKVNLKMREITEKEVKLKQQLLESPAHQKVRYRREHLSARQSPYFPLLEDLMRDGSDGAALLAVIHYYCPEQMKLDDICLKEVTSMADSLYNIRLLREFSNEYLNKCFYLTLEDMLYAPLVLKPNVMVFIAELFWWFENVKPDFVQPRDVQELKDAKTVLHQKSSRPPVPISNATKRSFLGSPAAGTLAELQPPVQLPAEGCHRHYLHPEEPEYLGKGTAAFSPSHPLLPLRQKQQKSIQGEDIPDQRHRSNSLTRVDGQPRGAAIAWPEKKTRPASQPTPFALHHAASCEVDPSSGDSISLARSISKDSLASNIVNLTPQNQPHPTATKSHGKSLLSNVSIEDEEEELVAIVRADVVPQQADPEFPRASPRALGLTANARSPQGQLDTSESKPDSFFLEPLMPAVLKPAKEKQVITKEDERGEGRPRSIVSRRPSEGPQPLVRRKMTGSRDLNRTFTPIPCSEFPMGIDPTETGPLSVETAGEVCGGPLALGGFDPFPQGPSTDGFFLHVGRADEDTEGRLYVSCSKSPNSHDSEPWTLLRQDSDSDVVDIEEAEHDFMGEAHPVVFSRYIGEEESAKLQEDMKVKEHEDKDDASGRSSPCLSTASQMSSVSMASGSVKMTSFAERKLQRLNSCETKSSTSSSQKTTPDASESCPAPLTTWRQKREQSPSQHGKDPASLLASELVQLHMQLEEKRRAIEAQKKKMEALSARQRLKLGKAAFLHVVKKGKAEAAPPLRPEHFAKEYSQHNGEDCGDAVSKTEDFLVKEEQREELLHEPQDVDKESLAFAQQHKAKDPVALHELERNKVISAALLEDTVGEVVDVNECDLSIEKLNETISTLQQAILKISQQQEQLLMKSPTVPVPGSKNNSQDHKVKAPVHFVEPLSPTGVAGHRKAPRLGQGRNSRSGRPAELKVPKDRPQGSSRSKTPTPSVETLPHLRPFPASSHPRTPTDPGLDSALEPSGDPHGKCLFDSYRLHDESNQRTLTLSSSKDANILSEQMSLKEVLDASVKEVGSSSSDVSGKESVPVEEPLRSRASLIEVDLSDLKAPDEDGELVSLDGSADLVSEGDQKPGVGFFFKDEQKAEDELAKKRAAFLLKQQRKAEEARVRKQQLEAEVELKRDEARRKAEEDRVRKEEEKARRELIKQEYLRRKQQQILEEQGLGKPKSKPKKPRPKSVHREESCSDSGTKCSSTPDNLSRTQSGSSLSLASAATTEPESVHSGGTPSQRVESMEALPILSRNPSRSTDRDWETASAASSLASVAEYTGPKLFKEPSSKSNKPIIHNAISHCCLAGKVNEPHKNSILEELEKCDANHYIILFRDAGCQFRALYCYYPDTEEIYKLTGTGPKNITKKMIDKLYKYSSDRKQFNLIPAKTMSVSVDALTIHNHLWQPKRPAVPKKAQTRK
UniProt Q9NRP7: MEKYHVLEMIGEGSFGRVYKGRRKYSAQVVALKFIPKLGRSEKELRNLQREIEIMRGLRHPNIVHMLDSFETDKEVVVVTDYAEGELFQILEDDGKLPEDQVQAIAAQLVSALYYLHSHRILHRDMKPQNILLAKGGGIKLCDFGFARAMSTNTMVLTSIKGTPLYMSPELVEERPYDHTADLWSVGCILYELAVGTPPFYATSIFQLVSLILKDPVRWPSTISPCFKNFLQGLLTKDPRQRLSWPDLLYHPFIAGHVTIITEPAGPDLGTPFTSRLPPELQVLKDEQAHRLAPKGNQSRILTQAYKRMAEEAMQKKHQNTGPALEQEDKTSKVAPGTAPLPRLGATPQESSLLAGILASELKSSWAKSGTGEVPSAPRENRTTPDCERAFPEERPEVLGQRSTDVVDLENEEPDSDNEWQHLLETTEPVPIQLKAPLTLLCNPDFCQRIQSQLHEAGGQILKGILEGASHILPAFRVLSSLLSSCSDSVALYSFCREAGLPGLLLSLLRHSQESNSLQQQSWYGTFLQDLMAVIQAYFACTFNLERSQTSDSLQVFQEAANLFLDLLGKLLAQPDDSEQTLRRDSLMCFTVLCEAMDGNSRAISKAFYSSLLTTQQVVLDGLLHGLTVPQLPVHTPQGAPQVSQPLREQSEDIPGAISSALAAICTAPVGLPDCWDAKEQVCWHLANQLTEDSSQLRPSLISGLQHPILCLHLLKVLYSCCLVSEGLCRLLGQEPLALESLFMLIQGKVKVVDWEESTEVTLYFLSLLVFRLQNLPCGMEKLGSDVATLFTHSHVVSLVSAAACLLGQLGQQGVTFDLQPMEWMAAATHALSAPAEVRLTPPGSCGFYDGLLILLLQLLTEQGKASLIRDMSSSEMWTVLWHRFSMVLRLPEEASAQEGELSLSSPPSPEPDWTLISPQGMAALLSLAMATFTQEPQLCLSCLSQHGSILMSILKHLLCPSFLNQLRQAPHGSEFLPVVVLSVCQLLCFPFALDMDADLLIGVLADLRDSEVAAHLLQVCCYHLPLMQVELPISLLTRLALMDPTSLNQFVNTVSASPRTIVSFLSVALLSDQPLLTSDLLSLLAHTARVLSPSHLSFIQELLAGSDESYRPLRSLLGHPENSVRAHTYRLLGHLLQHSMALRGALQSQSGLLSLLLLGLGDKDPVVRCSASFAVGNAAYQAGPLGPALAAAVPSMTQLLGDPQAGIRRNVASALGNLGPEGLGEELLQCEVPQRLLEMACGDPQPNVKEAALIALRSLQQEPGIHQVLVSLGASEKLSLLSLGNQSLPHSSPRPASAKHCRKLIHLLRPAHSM
UniProt O75116: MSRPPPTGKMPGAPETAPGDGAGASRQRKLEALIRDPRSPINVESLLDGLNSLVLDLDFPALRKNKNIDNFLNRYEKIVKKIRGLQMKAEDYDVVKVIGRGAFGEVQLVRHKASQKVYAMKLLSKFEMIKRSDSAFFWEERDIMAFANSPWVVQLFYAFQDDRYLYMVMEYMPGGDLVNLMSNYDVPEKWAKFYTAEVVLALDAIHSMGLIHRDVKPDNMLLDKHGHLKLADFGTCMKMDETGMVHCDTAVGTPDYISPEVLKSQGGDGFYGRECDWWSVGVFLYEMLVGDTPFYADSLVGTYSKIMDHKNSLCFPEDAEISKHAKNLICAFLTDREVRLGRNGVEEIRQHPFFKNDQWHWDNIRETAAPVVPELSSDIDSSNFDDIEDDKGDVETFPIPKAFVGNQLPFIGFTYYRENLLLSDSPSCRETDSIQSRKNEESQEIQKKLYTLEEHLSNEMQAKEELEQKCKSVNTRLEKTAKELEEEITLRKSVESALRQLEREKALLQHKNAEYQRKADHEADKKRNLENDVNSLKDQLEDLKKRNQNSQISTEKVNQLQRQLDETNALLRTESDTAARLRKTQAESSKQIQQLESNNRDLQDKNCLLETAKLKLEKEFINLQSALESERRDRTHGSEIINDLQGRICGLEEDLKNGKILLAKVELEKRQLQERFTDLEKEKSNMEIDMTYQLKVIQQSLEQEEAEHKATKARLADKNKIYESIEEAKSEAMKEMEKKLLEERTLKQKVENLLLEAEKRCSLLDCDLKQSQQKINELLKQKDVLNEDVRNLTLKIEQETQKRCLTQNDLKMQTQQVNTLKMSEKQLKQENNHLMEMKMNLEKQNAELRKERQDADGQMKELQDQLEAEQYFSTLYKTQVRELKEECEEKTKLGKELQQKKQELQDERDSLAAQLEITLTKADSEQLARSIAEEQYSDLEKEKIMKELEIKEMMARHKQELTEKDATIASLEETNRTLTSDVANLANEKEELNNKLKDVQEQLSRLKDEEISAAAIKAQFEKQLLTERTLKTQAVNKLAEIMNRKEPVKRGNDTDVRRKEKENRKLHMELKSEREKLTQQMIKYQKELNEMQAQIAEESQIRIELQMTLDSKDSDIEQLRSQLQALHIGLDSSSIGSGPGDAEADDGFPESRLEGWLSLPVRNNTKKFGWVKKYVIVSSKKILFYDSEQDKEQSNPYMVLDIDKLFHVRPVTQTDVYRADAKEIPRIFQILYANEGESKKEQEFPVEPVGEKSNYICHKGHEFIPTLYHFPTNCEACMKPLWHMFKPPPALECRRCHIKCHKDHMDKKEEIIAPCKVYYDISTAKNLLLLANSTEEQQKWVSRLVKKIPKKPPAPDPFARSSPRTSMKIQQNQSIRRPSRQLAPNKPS
UniProt Q1MSJ5: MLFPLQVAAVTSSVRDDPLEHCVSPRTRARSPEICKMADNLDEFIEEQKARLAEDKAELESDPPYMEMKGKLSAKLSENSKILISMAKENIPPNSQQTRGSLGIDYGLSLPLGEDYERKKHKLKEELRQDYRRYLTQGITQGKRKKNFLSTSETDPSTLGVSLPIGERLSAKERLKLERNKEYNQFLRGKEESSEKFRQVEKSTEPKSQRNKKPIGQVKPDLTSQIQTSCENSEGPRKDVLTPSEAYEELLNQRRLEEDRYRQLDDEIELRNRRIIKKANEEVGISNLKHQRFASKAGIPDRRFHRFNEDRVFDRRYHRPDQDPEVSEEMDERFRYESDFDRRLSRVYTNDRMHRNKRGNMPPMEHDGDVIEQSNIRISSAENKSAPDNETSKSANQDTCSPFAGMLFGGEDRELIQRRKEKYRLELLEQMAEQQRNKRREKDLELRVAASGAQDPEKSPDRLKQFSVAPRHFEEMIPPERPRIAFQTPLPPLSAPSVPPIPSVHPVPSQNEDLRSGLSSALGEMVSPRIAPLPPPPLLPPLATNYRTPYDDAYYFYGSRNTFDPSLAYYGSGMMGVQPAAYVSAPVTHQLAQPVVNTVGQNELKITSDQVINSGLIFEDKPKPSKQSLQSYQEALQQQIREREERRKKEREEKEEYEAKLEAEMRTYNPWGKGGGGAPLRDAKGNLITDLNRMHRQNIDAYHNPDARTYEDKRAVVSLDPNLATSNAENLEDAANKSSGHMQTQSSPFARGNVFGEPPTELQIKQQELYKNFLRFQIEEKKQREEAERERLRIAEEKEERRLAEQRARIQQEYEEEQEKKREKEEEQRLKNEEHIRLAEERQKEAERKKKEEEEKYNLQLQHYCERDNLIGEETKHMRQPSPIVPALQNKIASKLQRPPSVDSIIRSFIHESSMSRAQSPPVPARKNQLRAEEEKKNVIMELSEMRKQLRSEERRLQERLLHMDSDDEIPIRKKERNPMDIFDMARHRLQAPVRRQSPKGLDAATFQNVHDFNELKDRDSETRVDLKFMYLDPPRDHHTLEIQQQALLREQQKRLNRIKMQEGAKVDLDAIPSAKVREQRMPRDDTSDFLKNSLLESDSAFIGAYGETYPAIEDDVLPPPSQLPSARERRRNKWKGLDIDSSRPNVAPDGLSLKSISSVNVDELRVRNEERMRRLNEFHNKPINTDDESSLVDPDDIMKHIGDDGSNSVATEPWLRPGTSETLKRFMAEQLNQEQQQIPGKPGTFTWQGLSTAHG
UniProt Q92845: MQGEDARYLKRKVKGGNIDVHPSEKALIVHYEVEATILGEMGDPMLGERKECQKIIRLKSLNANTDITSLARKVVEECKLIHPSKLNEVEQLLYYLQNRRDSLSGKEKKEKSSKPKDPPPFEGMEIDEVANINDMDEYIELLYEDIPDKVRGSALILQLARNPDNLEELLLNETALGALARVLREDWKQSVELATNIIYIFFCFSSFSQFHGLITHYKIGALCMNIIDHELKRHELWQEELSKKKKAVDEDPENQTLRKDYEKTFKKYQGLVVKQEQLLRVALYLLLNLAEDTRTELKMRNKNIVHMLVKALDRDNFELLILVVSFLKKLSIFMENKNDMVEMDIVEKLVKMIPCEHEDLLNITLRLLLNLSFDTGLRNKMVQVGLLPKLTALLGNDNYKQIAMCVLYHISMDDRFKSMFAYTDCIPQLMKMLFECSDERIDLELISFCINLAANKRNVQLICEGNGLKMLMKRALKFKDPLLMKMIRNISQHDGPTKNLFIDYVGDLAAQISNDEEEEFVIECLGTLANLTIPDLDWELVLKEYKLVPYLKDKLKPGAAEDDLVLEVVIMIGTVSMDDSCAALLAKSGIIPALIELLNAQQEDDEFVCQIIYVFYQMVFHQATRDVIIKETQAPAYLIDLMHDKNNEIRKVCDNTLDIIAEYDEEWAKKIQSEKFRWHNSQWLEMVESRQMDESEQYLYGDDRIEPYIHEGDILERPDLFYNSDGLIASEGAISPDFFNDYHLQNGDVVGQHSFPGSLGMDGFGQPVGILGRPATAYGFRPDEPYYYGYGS

These are yes or no findings as the source states them, for the method shown. In cells and extracts the contact can be indirect. A yes stands for co-enrichment or nearness to the bait. Other partners may have been found.

Common to all, as to assay: proximity labelling
The target in experiment [1] is T1, ULK4 R39 variant (BioID bait) (human) (UniProt Q96C45).
T1 sequence: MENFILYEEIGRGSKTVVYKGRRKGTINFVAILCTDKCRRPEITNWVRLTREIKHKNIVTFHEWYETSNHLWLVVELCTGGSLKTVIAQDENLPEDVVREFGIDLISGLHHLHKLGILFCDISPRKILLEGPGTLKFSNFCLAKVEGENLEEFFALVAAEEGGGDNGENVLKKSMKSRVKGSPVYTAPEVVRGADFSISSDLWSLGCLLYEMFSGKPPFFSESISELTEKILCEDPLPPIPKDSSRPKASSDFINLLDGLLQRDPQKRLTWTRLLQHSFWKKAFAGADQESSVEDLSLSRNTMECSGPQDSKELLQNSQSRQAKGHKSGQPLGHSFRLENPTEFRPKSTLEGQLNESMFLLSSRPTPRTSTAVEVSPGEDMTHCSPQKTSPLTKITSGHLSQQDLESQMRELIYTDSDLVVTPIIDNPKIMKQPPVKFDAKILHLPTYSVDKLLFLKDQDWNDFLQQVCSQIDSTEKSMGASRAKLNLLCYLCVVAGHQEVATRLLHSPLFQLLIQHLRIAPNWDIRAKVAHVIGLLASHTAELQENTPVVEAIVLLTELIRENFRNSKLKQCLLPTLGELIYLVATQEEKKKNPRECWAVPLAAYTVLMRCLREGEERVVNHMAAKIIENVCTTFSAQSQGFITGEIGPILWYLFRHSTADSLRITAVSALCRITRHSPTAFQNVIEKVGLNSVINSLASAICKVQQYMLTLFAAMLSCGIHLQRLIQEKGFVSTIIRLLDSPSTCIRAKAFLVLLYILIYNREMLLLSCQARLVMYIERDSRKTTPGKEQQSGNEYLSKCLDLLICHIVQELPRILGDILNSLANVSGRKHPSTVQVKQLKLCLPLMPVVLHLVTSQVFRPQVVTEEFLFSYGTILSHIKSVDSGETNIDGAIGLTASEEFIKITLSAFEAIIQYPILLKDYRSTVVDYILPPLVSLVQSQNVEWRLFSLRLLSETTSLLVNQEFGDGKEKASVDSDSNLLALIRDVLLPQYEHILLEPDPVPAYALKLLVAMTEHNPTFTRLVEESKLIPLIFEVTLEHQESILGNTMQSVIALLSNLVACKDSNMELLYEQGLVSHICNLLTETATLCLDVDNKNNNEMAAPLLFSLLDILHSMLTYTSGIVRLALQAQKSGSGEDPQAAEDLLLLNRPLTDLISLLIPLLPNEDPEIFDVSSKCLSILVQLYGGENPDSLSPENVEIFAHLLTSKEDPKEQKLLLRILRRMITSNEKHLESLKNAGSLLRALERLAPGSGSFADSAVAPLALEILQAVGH

Experiment [2] has as its target N-terminally FLAG-tagged ULK4 (FlagBirA*-ULK4) (human) (UniProt Q96C45).
In experiment [3] the target is C-terminally FLAG-tagged full-length ULK4 (ULK4-BirA*Flag) (human) (UniProt Q96C45).
The target of experiment [4] is N- and C-terminally FlagBirA* tagged full length ULK4 (BioID baits, hits pooled) (human) (UniProt Q96C45).

For the molecule “calmodulin regulated spectrin associated protein 1 (CAMSAP1) (from UniProt Q5T5Y3 1-1602)”, the binding result in experiment [1], in experiment [2], in experiment [3] and in experiment [4] was “binds” throughout.
As for STK36 (from UniProt Q9NRP7 1-1315), the binding entry in experiment [1] and in experiment [4] was “binds” throughout.
For the molecule “Rho associated coiled-coil containing protein kinase 2 (ROCK2) (from UniProt O75116 1-1388)”, the binding result in experiment [1], in experiment [2], in experiment [3] and in experiment [4] was “binds” each time.
Turning to “CSPP1 (Centrosome and Spindle Pole Associated Protein 1) (from UniProt Q1MSJ5 1-1256)”, the binding entry in experiment [1] and in experiment [4] was “binds” throughout.
As to KIF1B (from UniProt O60333 1-1816), the binding result in experiment [1] and in experiment [4] was “binds” each time.
As for KIFAP3 (from UniProt Q92845 1-792), the binding result in experiment [1] and in experiment [4] was “binds” in each case.
As for “Microtubule Associated Serine/Threonine Kinase 2 MAST2 (from UniProt Q6P0Q8 1-1798)”, the binding entry in experiment [1] and in experiment [4] was “binds” throughout.

B1: HAUS8 (HEC1/NDC80-Interacting Centrosome-Associated Protein) (protein, UniProt Q9BT25 1-410)
chain: MADSSGRGAGKPATGPTNSSSAKKKDKRVQGGRVIESRYLQYEKKTTQKAPAGDGSQTRGKMSEGGRKSSLLQKSKADSSGVGKGDLQSTLLEGHGTAPPDLDLSAINDKSIVKKTPQLAKTISKKPESTSFSAPRKKSPDLSEAMEMMESQTLLLTLLSVKMENNLAEFERRAEKNLLIMCKEKEKLQKKAHELKRRLLLSQRKRELADVLDAQIEMLSPFEAVATRFKEQYRTFATALDTTRHELPVRSIHLEGDGQQLLDALQHELVTTQRLLGELDVGDSEENVQVLDLLSELKDVTAKKDLELRRSFAQVLELSAEASKEAALANQEVWEETQGMAPPSRWYFNQDSACRESGGAPKNTPLSEDDNPGASSAPAQATFISPSEDFSSSSQAEVPPSLSRSGRDLS
For B1, the binding result in experiment [1] and in experiment [4] was “binds” in each case.

B2: HAUS2 (protein, UniProt Q9NVX0 1-235)
chain: MAAANPWDPASAPNGAGLVLGHFIASGMVNQEMLNMSKKTVSCFVNFTRLQQITNIQAEIYQKNLEIELLKLEKDTADVVHPFFLAQKCHTLQSMNNHLEAVLKEKRSLRQRLLKPMCQENLPIEAVYHRYMVHLLELAVTFIERLETHLETIRNIPHLAANLKKMNQALAKMDILVTETEELAENILKWRKQQNEVSSCIPKILAEESYLYKHDIIMPPLPFTSKVHVQTINAK
Turning to B2, the binding result in experiment [1] and in experiment [4] was “binds” each time.

B3: KIF3B (protein, UniProt O15066 1-747)
chain: MSKLKSSESVRVVVRCRPMNGKEKAASYDKVVDVDVKLGQVSVKNPKGTAHEMPKTFTFDAVYDWNAKQFELYDETFRPLVDSVLQGFNGTIFAYGQTGTGKTYTMEGIRGDPEKRGVIPNSFDHIFTHISRSQNQQYLVRASYLEIYQEEIRDLLSKDQTKRLELKERPDTGVYVKDLSSFVTKSVKEIEHVMNVGNQNRSVGATNMNEHSSRSHAIFVITIECSEVGLDGENHIRVGKLNLVDLAGSERQAKTGAQGERLKEATKINLSLSALGNVISALVDGKSTHIPYRDSKLTRLLQDSLGGNAKTVMVANVGPASYNVEETLTTLRYANRAKNIKNKPRVNEDPKDALLREFQEEIARLKAQLEKRSIGRRKRREKRREGGGSGGGGEEEEEEGEEGEEEGDDKDDYWREQQEKLEIEKRAIVEDHSLVAEEKMRLLKEKEKKMEDLRREKDAAEMLGAKIKAMESKLLVGGKNIVDHTNEQQKILEQKRQEIAEQKRREREIQQQMESRDEETLELKETYSSLQQEVDIKTKKLKKLFSKLQAVKAEIHDLQEEHIKERQELEQTQNELTRELKLKHLIIENFIPLEEKSKIMNRAFFDEEEDHWKLHPITRLENQQMMKRPVSAVGYKRPLSQHARMSMMIRPEARYRAENIVLLELDMPSRTTRDYEGPAIAPKVQAALDAALQDEDEIQVDASSFESTANKKSKARPKSGRKSGSSSSSSGTPASQLYPQSRGLVPK
In the case of B3, the binding entry in experiment [1] and in experiment [4] was “binds” each time.

B4: OFD1 (OFD1 centriole and centriolar satellite protein) (protein, UniProt O75665 1-1012)
chain: MMAQSNMFTVADVLSQDELRKKLYQTFKDRGILDTLKTQLRNQLIHELMHPVLSGELQPRSISVEGSSLLIGASNSLVADHLQRCGYEYSLSVFFPESGLAKEKVFTMQDLLQLIKINPTSSLYKSLVSGSDKENQKGFLMHFLKELAEYHQAKESCNMETQTSSTFNRDSLAEKLQLIDDQFADAYPQRIKFESLEIKLNEYKREIEEQLRAEMCQKLKFFKDTEIAKIKMEAKKKYEKELTMFQNDFEKACQAKSEALVLREKSTLERIHKHQEIETKEIYAQRQLLLKDMDLLRGREAELKQRVEAFELNQKLQEEKHKSITEALRRQEQNIKSFEETYDRKLKNELLKYQLELKDDYIIRTNRLIEDERKNKEKAVHLQEELIAINSKKEELNQSVNRVKELELELESVKAQSLAITKQNHMLNEKVKEMSDYSLLKEEKLELLAQNKLLKQQLEESRNENLRLLNRLAQPAPELAVFQKELRKAEKAIVVEHEEFESCRQALHKQLQDEIEHSAQLKAQILGYKASVKSLTTQVADLKLQLKQTQTALENEVYCNPKQSVIDRSVNGLINGNVVPCNGEISGDFLNNPFKQENVLARMVASRITNYPTAWVEGSSPDSDLEFVANTKARVKELQQEAERLEKAFRSYHRRVIKNSAKSPLAAKSPPSLHLLEAFKNITSSSPERHIFGEDRVVSEQPQVGTLEERNDVVEALTGSAASRLRGGTSSRRLSSTPLPKAKRSLESEMYLEGLGRSHIASPSPCPDRMPLPSPTESRHSLSIPPVSSPPEQKVGLYRRQTELQDKSEFSDVDKLAFKDNEEFESSFESAGNMPRQLEMGGLSPAGDMSHVDAAAAAVPLSYQHPSVDQKQIEEQKEEEKIREQQVKERRQREERRQSNLQEVLERERRELEKLYQERKMIEESLKIKIKKELEMENELEMSNQEIKDKSAHSENPLEKYMKIIQQEQDQESADKSSKKMVQEGSLVDTLQSSDKVESLTGFSHEELDDSW
Regarding B4, the binding result in experiment [1] and in experiment [4] was “binds” in each case.
